Experimental data published in US20240156960A1 (priority 2020, published 2024).
For at least one compound, name, drawing or mass did not settle the structure.

Test: Serum rituximab-biosimilar by commercial ELISA after low dose dexamethasone pretreatment
Assay type: in vivo, mice

C[C@@H]1C[C@H]2[C@@H]3CCC4=CC(=O)C=C[C@]4(C)[C@@]3(F)[C@@H](O)C[C@]2(C)[C@@]1(O)C(=O)CO [dexamethasone]
rituximab serum protein levels at day 1 (a number of the lowest free dexamethasone doses): statistically significantly increased
long term protein production (serum rituximab-biosimilar) (pre-dosed IP 1 to 40 mg/kg two hours prior to i.v. injection, days 1-22): maintains IV DNA vectors already high level, long term protein production
